In patent US8242058B2, “Reagents and methods for appending functional groups to proteins” (Wisconsin Alumni Research Foundation, priority 2006, dated 2012):
Like-named read-outs stand apart in the source and are kept apart here. At least one read-out could not be matched to a standard name with certainty.

Columns and labels:
[1] = test system: 6-carboxyfluorescein-dArU(dA)2-6-carboxytetramethyl rhodamine; experiment: Ribonucleolytic activity (kcat/KM, fluorogenic substrate); assay type: biochemical; conditions: purified protein
[2] = test system: 6-carboxyfluorescein-dArU(dA)2-6-carboxytetramethyl rhodamine; conditions: wild-type, reference [45]; cited from earlier work

| Molecule | kcat/KM for the cleavage of RNA [1] | kcat/KM for the cleavage of RNA [2] |
| --- | --- | --- |
| Met(−1)RNase A-Gly-NHNHCH2C(O)NHCH2CH2N3 [azido-RNase A] | (3.2±1.0)×10^7 M^−1s^−1 |  |
| wild-type RNase A: bovine pancreatic ribonuclease (RNase A), unmodified wild-type, Sigma Chemical (protein, UniProt P61823 27-150, looked up) Ribonuclease pancreatic: KETAAAKFERQHMDSSTSAASSSNYCNQMMKSRNLTKDRCKPVNTFVHESLADVQAVCSQKNVACKNGQTNCYQSYSTMSITDCRETGSSKYPNCAYKTTQANKHIIVACEGNPYVPVHFDASV |  | (5.2±0.4)×10^7 M^−1s^−1 |
